# According to PubChem BioAssay AID330 (DTP/NCI, 2004):
# The list shows only some results of the screen, not a fair sample: it is rich in T/C values a quarter to a half above the control, in often repeated tests (any T/C) and in doses without a T/C. Other doses and runs of a compound stand elsewhere. T/C is the treated group as % of the vehicle group. Some doses have a count of surviving animals in place of a T/C: the source files T/C as zero there, which appears to mark a toxic dose or a test without result, not a measured value. Some doses without a T/C left all or most animals alive at the check, yet need not have been tolerated: the source hardly ever lists a survival T/C far under the control, and the zero likely stands for such cases as well. Survivors were counted at the toxicity check, usually on the fifth day, unless a day is given; later deaths do not show. Schedules are NCI's codes, read here as Q, the interval in days (D) or hours (H), X, the number of doses. Some entries hold several experiments; the results are listed from low to high. Brackets with × give the number of equal values in this list. For survival time, this PubChem deposit counts one and a half times the control or more as active, and values a quarter to a half above the control carry no call in these data; other NCI protocols may use other cut-offs. Some T/C values are followed by the survivors on the day toxicity was checked, most often the fifth; without a count, all were alive then.
# System: P388 leukemia ip, CD2F1 mice, survival T/C
# Test: NCI In Vivo Anticancer Drug Screen. Data for tumor model P388 Leukemia (intraperitoneal) in CD2F1 (CDF1) mice
# Conditions: T/C endpoint: median survival time, higher T/C = longer survival
# [1] = dose: 25.0 mg/kg/injection, schedule: Q01DX009 (ip), vehicle: saline with Tween-80
# [2] = dose: 12.5 mg/kg/injection, schedule: Q01DX009 (ip), vehicle: saline
# [3] = dose: 25.0 mg/kg/injection, schedule: Q01DX009 (ip), vehicle: saline
# [4] = dose: 50.0 mg/kg/injection, schedule: Q01DX009 (ip), vehicle: saline
# [5] = dose: 100.0 mg/kg/injection, schedule: Q01DX009 (ip), vehicle: saline
# [6] = dose: 200.0 mg/kg/injection, schedule: Q01DX009 (ip), vehicle: saline
# [7] = dose: 50.0 mg/kg/injection, schedule: Q01DX009 (ip), vehicle: saline with Tween-80
# [8] = dose: 240.0 mg/kg/injection, schedule: Q01DX005 (ip), vehicle: Klucel (hydroxypropylcellulose) (HPC)
# [9] = dose: 50.0 mg/kg/injection, schedule: Q01DX005 (ip), vehicle: saline with Tween-80
# [10] = dose: 6.25 mg/kg/injection, schedule: Q01DX005 (ip), vehicle: Klucel (hydroxypropylcellulose) (HPC)
smiles,measurement,setting,value
CC1(C)OC2OC(COC(=O)c3ccccc3)C(=O)C2O1 (stereo not given),survivor count,[1],6 of 6
O=C1OCC2OC(=O)c3cc(O)c(O)c(O)c3-c3c(O)c(O)c(O)c4c3C(=O)OC(C2OC(=O)c2cc(O)c(O)c(O)c2-c2c1cc(O)c(O)c2O)C1OC(=O)c2c-4c(O)c(O)c(O)c2C1O (stereo not given),survivor count,[2],3 of 6
same,survivor count,[3],0 of 6 and 1 of 6
same,survivor count,[4],3 of 6 and 5 of 6
same,survivor count,[5],0 of 6 and 2 of 6
same,survivor count,[6],0 of 6 (2×)
[Cl][Sn]([c]1ccccc1)[c]1ccccc1,survivor count,"dose: 6.0 mg/kg/injection, schedule: Q03HX015 (ip), vehicle: saline",5 of 10
same,T/C,"dose: 6.25 mg/kg/injection, schedule: Q01DX009 (ip), vehicle: saline with Tween-80",128 % of control
same,T/C,"dose: 6.25 mg/kg/injection, schedule: Q01DX009 (ip), vehicle: saline",132 and 135 % of control
same,T/C,"dose: 8.0 mg/kg/injection, schedule: Q01DX005 (ip), vehicle: saline",147 % of control
same,survivor count,"dose: 9.0 mg/kg/injection, schedule: Q03HX015 (ip), vehicle: saline",0 of 10
same,survivor count,"dose: 12.5 mg/kg/injection, schedule: Q01DX009 (ip), vehicle: saline with Tween-80",1 of 6
same,T/C,[2],144 % of control
same,survivor count,"dose: 13.3 mg/kg/injection, schedule: Q03HX015 (ip), vehicle: saline",0 of 10
same,survivor count,"dose: 18.0 mg/kg/injection, schedule: Q01DX005 (ip), vehicle: saline",2 of 10
same,survivor count,"dose: 20.0 mg/kg/injection, schedule: Q03HX015 (ip), vehicle: saline",0 of 10
same,survivor count,[1],0 of 6
same,T/C,[3],144 % of control [4 of 6 alive]
same,T/C,"dose: 25.0 mg/kg/injection, schedule: Q04DX003 (ip), vehicle: saline",132 % of control
same,survivor count,"dose: 27.0 mg/kg/injection, schedule: Q01DX005 (ip), vehicle: saline",0 of 10
same,survivor count,"dose: 30.0 mg/kg/injection, schedule: Q03HX015 (ip), vehicle: saline",0 of 10
same,survivor count,"dose: 40.0 mg/kg/injection, schedule: Q01DX005 (ip), vehicle: saline",0 of 10
same,survivor count,"dose: 45.0 mg/kg/injection, schedule: Q03HX015 (ip), vehicle: saline",0 of 10
same,survivor count,[7],0 of 6
same,survivor count,[4],5 of 6
same,T/C,"dose: 50.0 mg/kg/injection, schedule: Q04DX003 (ip), vehicle: saline",127 % of control [5 of 6 alive]
same,survivor count,"dose: 60.0 mg/kg/injection, schedule: Q01DX005 (ip), vehicle: saline",0 of 10
same,survivor count,"dose: 90.0 mg/kg/injection, schedule: Q01DX005 (ip), vehicle: saline",0 of 10
same,survivor count,[5],6 of 6
same,survivor count,"dose: 135.0 mg/kg/injection, schedule: Q01DX005 (ip), vehicle: saline",0 of 10
same,survivor count,[6],2 of 6
Cc1noc(-c2ccc([N+](=O)[O-])o2)n1,survivor count,"dose: 300.0 mg/kg/injection, schedule: Q01DX009 (ip), vehicle: Klucel (hydroxypropylcellulose) (HPC)",4 of 6
O=C1c2ccncc2C(=O)c2c1[nH]c1ccccc21,survivor count,"dose: 7.5 mg/kg/injection, schedule: Q04DX002 (ip), vehicle: Klucel (hydroxypropylcellulose) (HPC)",6 of 6
same,survivor count,"dose: 15.0 mg/kg/injection, schedule: Q04DX002 (ip), vehicle: Klucel (hydroxypropylcellulose) (HPC)",6 of 6
same,survivor count,"dose: 60.0 mg/kg/injection, schedule: Q04DX002 (ip), vehicle: Klucel (hydroxypropylcellulose) (HPC)",6 of 6
C/C=C/C=C1/OC(C)=C(C(C)=O)C1=O,T/C,"dose: 50.0 mg/kg/injection, schedule: Q01DX009 (ip), vehicle: saline + Tween-80 + alcohol",126 % of control
same,T/C,[7],128 % of control
same,survivor count,"dose: 200.0 mg/kg/injection, schedule: Q01DX009 (ip), vehicle: saline with Tween-80",4 of 6
Cc1cccc(-[n+]2noc(N)n2)c1,survivor count,"dose: 100.0 mg/kg/injection, schedule: Q01DX009 (ip), vehicle: water",5 of 6
CCCCc1c(O)c2c(=O)[nH]c(C)nc2oc1=O,survivor count,"dose: 60.0 mg/kg/injection, schedule: Q01DX005 (ip), vehicle: Klucel (hydroxypropylcellulose) (HPC)",0 of 6
same,survivor count,"dose: 120.0 mg/kg/injection, schedule: Q01DX005 (ip), vehicle: Klucel (hydroxypropylcellulose) (HPC)",0 of 6
same,survivor count,[8],0 of 6
C[N+]12CN3CN(CP(C3)C1)C2,survivor count,[4],3 of 6
same,survivor count,[5],0 of 6
same,survivor count,[6],0 of 6
C[O+]=c1ccc2ccc(-c3ccccc3)sc-2c1,survivor count,[8],6 of 6
C=CC(O)C(C)C(=O)O (stereo not given),survivor count,[9],4 of 5
CCCCCCCCCCCC(=O)N(CCO)CCc1ccccc1,T/C,[5],125 % of control
[O-][n+]1ccccc1C1CO1 (stereo not given),survivor count,[4],6 of 6
same,survivor count,[6],0 of 6
C=CCN(CC=C)P(=O)(N1CC1)N1CC1C (stereo not given),T/C,"dose: 0.27 mg/kg/injection, schedule: Q01DX009 (ip), vehicle: saline",133 % of control
same,T/C,"dose: 0.4 mg/kg/injection, schedule: Q01DX009 (ip), vehicle: saline",149 % of control
CN=C(NC)c1cccc(NC(=O)/C=C\c2ccc(/C=C/C(=O)Nc3cccc(C(=NC)NC)c3)cc2)c1,T/C,"dose: 3.13 mg/kg/injection, schedule: Q01DX005 (ip), vehicle: saline with Tween-80",130 % of control
same,T/C,"dose: 6.25 mg/kg/injection, schedule: Q01DX005 (ip), vehicle: saline with Tween-80",138 and 143 % of control [4 of 6 alive]
same,survivor count,"dose: 12.5 mg/kg/injection, schedule: Q01DX005 (ip), vehicle: saline with Tween-80",0 of 6
same,survivor count,"dose: 25.0 mg/kg/injection, schedule: Q01DX005 (ip), vehicle: saline with Tween-80",0 of 6
same,survivor count,[9],0 of 6
same,survivor count,"dose: 100.0 mg/kg/injection, schedule: Q01DX005 (ip), vehicle: saline with Tween-80",0 of 6
same,survivor count,"dose: 200.0 mg/kg/injection, schedule: Q01DX005 (ip), vehicle: saline with Tween-80",0 of 6
O=[N+]([O-])c1ccccc1N=Nc1c(-c2ccccc2)nn(C(=S)S)c1-c1ccccc1,survivor count,"dose: 100.0 mg/kg/injection, schedule: Q04DX002 (ip), vehicle: Klucel (hydroxypropylcellulose) (HPC)",5 of 5
same,survivor count,"dose: 400.0 mg/kg/injection, schedule: Q04DX002 (ip), vehicle: Klucel (hydroxypropylcellulose) (HPC)",4 of 5
[Cl][Sn]([Cl])([c]1ccccc1)[c]1ccccc1.c1ccc(-c2nnc(-c3ccccn3)nc2-c2ccccc2)cc1,T/C,"dose: 1.56 mg/kg/injection, schedule: Q01DX005 (ip), vehicle: Klucel (hydroxypropylcellulose) (HPC)",125 % of control [5 of 6 alive]
same,T/C,"dose: 3.12 mg/kg/injection, schedule: Q01DX005 (ip), vehicle: Klucel (hydroxypropylcellulose) (HPC)",127 % of control
same,T/C,[10],126 % of control
same,survivor count,[10],2 of 6 and 3 of 6
same,survivor count,"dose: 12.5 mg/kg/injection, schedule: Q01DX005 (ip), vehicle: Klucel (hydroxypropylcellulose) (HPC)",1 of 6
same,survivor count,"dose: 25.0 mg/kg/injection, schedule: Q01DX005 (ip), vehicle: Klucel (hydroxypropylcellulose) (HPC)",0 of 6
same,survivor count,"dose: 50.0 mg/kg/injection, schedule: Q01DX005 (ip), vehicle: Klucel (hydroxypropylcellulose) (HPC)",0 of 6
CN1C(=O)C2(C)SSC1(C)C(=O)N2C,survivor count,[4],6 of 6
same,survivor count,[5],6 of 6
same,survivor count,[6],5 of 6
CCC1CN2CCc3cc(OC)c(OC)cc3C2CC1(O)C#N (stereo not given),survivor count,"dose: 400.0 mg/kg/injection, schedule: Q01DX009 (ip), vehicle: Klucel (hydroxypropylcellulose) (HPC)",0 of 6
CCOP(=O)(O)C1CCCC(C)[N-]1.CCOP(=O)(O)C1CCCC(C)[N-]1.[Co+2] (stereo not given),survivor count,"dose: 200.0 mg/kg/injection, schedule: Q04DX003 (ip), vehicle: Klucel (hydroxypropylcellulose) (HPC)",4 of 6
same,survivor count,"dose: 400.0 mg/kg/injection, schedule: Q04DX003 (ip), vehicle: Klucel (hydroxypropylcellulose) (HPC)",0 of 6
Cc1cc(OC2OC(CO)C(O)C(O)C2O)ccc1O (stereo not given),survivor count,"dose: 100.0 mg/kg/injection, schedule: Q01DX009 (ip), vehicle: Klucel (hydroxypropylcellulose) (HPC)",6 of 6
